# The supplement of paper PMC8728848
# Some of the results follow.
# Key:
# Assay in all cases: glycan array binding signal (z-score within array); higher = stronger binding
# Details in all cases: glycan notation: IUPAC condensed, linker removed
# [1] = molecular target: Fuc(a1-2)[Gal(a1-3)]Gal(b1-4)GlcNAc(b1-2)Man(a1-3)[Fuc(a1-2)[Gal(a1-3)]Gal(b1-4)GlcNAc(b1-2)Man(a1-6)]Man(b1-4)GlcNAc(b1-4)[Fuc(a1-6)]GlcNAc
# Outline: (§1)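 Glycan array data were curated from 3228 arrays in the Consortium for Functional Glycomics database and kept only where the protein sequence was available. Glycan names were converted to IUPAC-condensed notation, and columns mapping to the same glycan were averaged. The binding signal is a within-array Z-score, averaged across arrays of the same protein sequence at different concentrations or buffers and across linkers. Negative Z-scores can be read as non-binding.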
# [2] = molecular target: Fuc(a1-2)[Gal(a1-3)]Gal(b1-4)GlcNAc(b1-3)GalNAc
# Outline: as §1
# [3] = molecular target: Fuc(a1-2)[Gal(a1-3)]Gal(b1-4)GlcNAc(b1-3)[Fuc(a1-2)[Gal(a1-3)]Gal(b1-4)GlcNAc(b1-6)]GalNAc
# Outline: as §1
# [4] = molecular target: Fuc(a1-2)[Gal(a1-3)]Gal(b1-4)GlcNAc(b1-6)GalNAc
# Outline: as §1
# [5] = molecular target: Fuc(a1-2)[Gal(a1-3)]Gal(b1-4)[Fuc(a1-3)]Glc
# Outline: as §1
# [6] = molecular target: Fuc(a1-2)[Gal(a1-3)]Gal(b1-4)[Fuc(a1-3)]GlcNAc
# Outline: as §1
# [7] = molecular target: Fuc(a1-2)[Gal(a1-3)]Gal(b1-4)[Fuc(a1-3)]GlcNAc(b1-3)GalNAc
# Outline: as §1
# [8] = molecular target: Fuc(a1-2)[Gal(a1-4)]Gal(b1-4)GlcNAc
# Outline: as §1
# [9] = molecular target: Fuc(a1-2)[GalNAc(a1-3)]Gal
# Outline: as §1
# [10] = molecular target: Fuc(a1-2)[GalNAc(a1-3)]Gal(b1-3)GalNAc(a1-3)[Fuc(a1-2)]Gal(b1-4)GlcNAc
# Outline: as §1
# [11] = molecular target: Fuc(a1-2)[GalNAc(a1-3)]Gal(b1-3)GalNAc(b1-3)Gal(a1-4)Gal(b1-4)Glc
# Outline: as §1
# [12] = molecular target: Fuc(a1-2)[GalNAc(a1-3)]Gal(b1-3)GlcNAc
# Outline: as §1
# [13] = molecular target: Fuc(a1-2)[GalNAc(a1-3)]Gal(b1-3)GlcNAc(b1-2)Man(a1-3)[Fuc(a1-2)[GalNAc(a1-3)]Gal(b1-3)GlcNAc(b1-2)Man(a1-6)]Man(b1-4)GlcNAc(b1-4)GlcNAc
# Outline: as §1
# [14] = molecular target: Fuc(a1-2)[GalNAc(a1-3)]Gal(b1-3)GlcNAc(b1-2)Man(a1-3)[Fuc(a1-2)[GalNAc(a1-3)]Gal(b1-3)GlcNAc(b1-2)Man(a1-6)]Man(b1-4)GlcNAc(b1-4)[Fuc(a1-6)]GlcNAc
# Outline: as §1
# [15] = molecular target: Fuc(a1-2)[GalNAc(a1-3)]Gal(b1-3)GlcNAc(b1-3)GalNAc
# Outline: as §1
# [16] = molecular target: Fuc(a1-2)[GalNAc(a1-3)]Gal(b1-3)GlcNAc(b1-6)GalNAc
# Outline: as §1
# [17] = molecular target: Fuc(a1-2)[GalNAc(a1-3)]Gal(b1-4)Glc
# Outline: as §1
# [18] = molecular target: Fuc(a1-2)[GalNAc(a1-3)]Gal(b1-4)GlcNAc
# Outline: as §1
# [19] = molecular target: Fuc(a1-2)[GalNAc(a1-3)]Gal(b1-4)GlcNAc(b1-2)Man
# Outline: as §1
# [20] = molecular target: Fuc(a1-2)[GalNAc(a1-3)]Gal(b1-4)GlcNAc(b1-2)Man(a1-3)[Fuc(a1-2)[GalNAc(a1-3)]Gal(b1-4)GlcNAc(b1-2)Man(a1-6)]Man(b1-4)GlcNAc(b1-4)GlcNAc
# Outline: as §1
# [21] = molecular target: Fuc(a1-2)[GalNAc(a1-3)]Gal(b1-4)GlcNAc(b1-2)Man(a1-3)[Fuc(a1-2)[GalNAc(a1-3)]Gal(b1-4)GlcNAc(b1-2)Man(a1-6)]Man(b1-4)GlcNAc(b1-4)[Fuc(a1-6)]GlcNAc
# Outline: as §1
# [22] = molecular target: Fuc(a1-2)[GalNAc(a1-3)]Gal(b1-4)GlcNAc(b1-3)Gal(b1-4)GlcNAc
# Outline: as §1
# [23] = molecular target: Fuc(a1-2)[GalNAc(a1-3)]Gal(b1-4)GlcNAc(b1-3)Gal(b1-4)GlcNAc(b1-3)Gal(b1-4)GlcNAc
# Outline: as §1
# [24] = molecular target: Fuc(a1-2)[GalNAc(a1-3)]Gal(b1-4)GlcNAc(b1-3)GalNAc
# Outline: as §1
# [25] = molecular target: Fuc(a1-2)[GalNAc(a1-3)]Gal(b1-4)GlcNAc(b1-3)[Fuc(a1-2)[GalNAc(a1-3)]Gal(b1-4)GlcNAc(b1-6)]GalNAc
# Outline: as §1
# [26] = molecular target: Fuc(a1-2)[GalNAc(a1-3)]Gal(b1-4)GlcNAc(b1-6)GalNAc
# Outline: as §1
# [27] = molecular target: Fuc(a1-2)[GalNAc(a1-3)]Gal(b1-4)[Fuc(a1-3)]GlcNAc
# Outline: as §1
# [28] = molecular target: Fuc(a1-2)[GalNAc(a1-3)]Gal(b1-4)[Fuc(a1-3)]GlcNAc(b1-3)GalNAc
# Outline: as §1
# [29] = molecular target: Fuc(a1-2)[GalNAc(a1-4)]Gal(b1-4)GlcNAc
# Outline: as §1
# [30] = molecular target: Fuc(a1-2)[GalNAc(b1-3)]Gal
# Outline: as §1
# Fuc(a1-3)GlcNAc = molecular target: Fuc(a1-3)GlcNAc
# Outline: as §1
# [31] = molecular target: Fuc(a1-3)[Gal(b1-4)]Glc6S
# Outline: as §1
# [32] = molecular target: Fuc(a1-3)[Gal(b1-4)]GlcNAc
# Outline: as §1
# [33] = molecular target: Fuc(a1-3)[Gal(b1-4)]GlcNAc(b1-2)Man
# Outline: as §1
# [34] = molecular target: Fuc(a1-3)[Gal(b1-4)]GlcNAc(b1-2)Man(a1-3)[Fuc(a1-3)[Gal(b1-4)]GlcNAc(b1-2)Man(a1-6)]Man(b1-4)GlcNAc(b1-4)GlcNAc
# Outline: as §1
# [35] = molecular target: Fuc(a1-3)[Gal(b1-4)]GlcNAc(b1-2)Man(a1-3)[Fuc(a1-3)[Gal(b1-4)]GlcNAc(b1-2)Man(a1-6)]Man(b1-4)GlcNAc(b1-4)[Fuc(a1-6)]GlcNAc
# Outline: as §1
# [36] = molecular target: Fuc(a1-3)[Gal(b1-4)]GlcNAc(b1-3)Gal(b1-3)[Fuc(a1-4)]GlcNAc
# Outline: as §1
# [37] = molecular target: Fuc(a1-3)[Gal(b1-4)]GlcNAc(b1-3)Gal(b1-4)[Fuc(a1-3)]GlcNAc
# Outline: as §1
# [38] = molecular target: Fuc(a1-3)[Gal(b1-4)]GlcNAc(b1-3)Gal(b1-4)[Fuc(a1-3)]GlcNAc(b1-3)Gal(b1-4)[Fuc(a1-3)]GlcNAc
# Outline: as §1
# [39] = molecular target: Fuc(a1-3)[Gal(b1-4)]GlcNAc(b1-3)GalNAc
# Outline: as §1
# [40] = molecular target: Fuc(a1-3)[Gal(b1-4)]GlcNAc(b1-6)GalNAc
# Outline: as §1
# [41] = molecular target: Fuc(a1-3)[Gal(b1-4)]GlcNAc(b1-6)[Gal(b1-3)GlcNAc(b1-3)]Gal(b1-4)Glc
# Outline: as §1
# [42] = molecular target: Fuc(a1-3)[Gal(b1-4)]GlcNAc6S
# Outline: as §1
# [43] = molecular target: Fuc(a1-3)[Gal3S(b1-4)]Glc
# Outline: as §1
# [44] = molecular target: Fuc(a1-3)[Gal3S(b1-4)]GlcNAc
# Outline: as §1
binder,measurement,setting,value
SJCP3842 (Schistosoma japonicum) (protein) MFKMRIINLVNISTVLLLINLLQTKSRLVGKENGFMLTVSIYGAQLSDKMTSVPVSWTIDYEDPEKSAFKKLVTDSCDTFSEYVKSQIPKGSVDGQCTSHIFQRPGSGSGVSISLTLSFIYVDVTQPDTVALKTELEKHFANFVTIHSHKITQAQFRINQKAIVIPTGDKDAIDGSKWKIIAIIALVALAIVVIGGFIYICVK,glycan array binding signal (z-score),[1],0.319
same,glycan array binding signal (z-score),[2],0.343
same,glycan array binding signal (z-score),[3],0.027
same,glycan array binding signal (z-score),[4],-0.994
same,glycan array binding signal (z-score),[5],-0.698
same,glycan array binding signal (z-score),[6],0.536
same,glycan array binding signal (z-score),[7],0.026
same,glycan array binding signal (z-score),[8],-0.102
same,glycan array binding signal (z-score),[9],0.627
same,glycan array binding signal (z-score),[10],-1.3
same,glycan array binding signal (z-score),[11],-0.004
same,glycan array binding signal (z-score),[12],0.689
same,glycan array binding signal (z-score),[13],-0.116
same,glycan array binding signal (z-score),[14],-1.18
same,glycan array binding signal (z-score),[15],-0.282
same,glycan array binding signal (z-score),[16],-0.635
same,glycan array binding signal (z-score),[17],-0.105
same,glycan array binding signal (z-score),[18],-1.04
same,glycan array binding signal (z-score),[19],-1.4
same,glycan array binding signal (z-score),[20],0.475
same,glycan array binding signal (z-score),[21],1.12
same,glycan array binding signal (z-score),[22],-0.465
same,glycan array binding signal (z-score),[23],0.96
same,glycan array binding signal (z-score),[24],-0.993
same,glycan array binding signal (z-score),[25],-0.478
same,glycan array binding signal (z-score),[26],-0.701
same,glycan array binding signal (z-score),[27],0.83
same,glycan array binding signal (z-score),[28],0.005
same,glycan array binding signal (z-score),[29],-0.125
same,glycan array binding signal (z-score),[30],-1.9
same,glycan array binding signal (z-score),Fuc(a1-3)GlcNAc,0.264
same,glycan array binding signal (z-score),[31],0.102
same,glycan array binding signal (z-score),[32],-0.817
same,glycan array binding signal (z-score),[33],-0.894
same,glycan array binding signal (z-score),[34],-1.89
same,glycan array binding signal (z-score),[35],0.64
same,glycan array binding signal (z-score),[36],0.001
same,glycan array binding signal (z-score),[37],2.06
same,glycan array binding signal (z-score),[38],-0.987
same,glycan array binding signal (z-score),[39],-0.492
same,glycan array binding signal (z-score),[40],-0.138
same,glycan array binding signal (z-score),[41],0.354
same,glycan array binding signal (z-score),[42],1.02
same,glycan array binding signal (z-score),[43],-0.384
same,glycan array binding signal (z-score),[44],0.529

# In a second layout: results already given.
binder | measurement | setting | value
SJCP3842 (Schistosoma japonicum) (protein) MFKMRIINLVNISTVLLLINLLQTKSRLVGKENGFMLTVSIYGAQLSDKMTSVPVSWTIDYEDPEKSAFKKLVTDSCDTFSEYVKSQIPKGSVDGQCTSHIFQRPGSGSGVSISLTLSFIYVDVTQPDTVALKTELEKHFANFVTIHSHKITQAQFRINQKAIVIPTGDKDAIDGSKWKIIAIIALVALAIVVIGGFIYICVK | glycan array binding signal (z-score) | [25] | -0.478
same | glycan array binding signal (z-score) | [26] | -0.701
